Assay results reported in PubChem BioAssay AID1347423 (Functional Genomics Laboratory (NCATS/FGL), 2020).
Out of some 52,000 sequences screened, about 210 (0.4%) were called active.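 The calls were made as follows: active = gene whose silencing raises cell survival under the drug, median off-target-corrected z-score across its silencing RNAs 2 or more; inactive = the rest.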 The list shows a part of the results.

experiment: Resistance to Poly (ADP-Ribose) Polymerase inhibitor: Gene Identification via Genome-wide siRNA Screen; conditions: mouse BRCA2 R2336H ES cells, olaparib, CellTiter-Glo viability; active compounds read high
Outline: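 Genome-wide siRNA screen (3 siRNAs/gene, 20 nM) in mouse ES cells carrying hypomorphic BRCA2 R2336H; olaparib 500 nM added 48 h post-transfection, CellTiter-Glo viability 72 h later. Normalized to plate-median negative control; MAD z-scores, gene median, seed-adjusted.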

Sequence	z-score
GCGUGUUCUAUCCUAUUUCTT against Sqle	inactive: 1.01
GGGACUUCUCCCAAUGUUGTT against Ucp2	inactive: 1.46
GCUUCGAGUUACAAUGUCATT against LOC382105	inactive: 0.489
GCCUUUGCUGUUAUACAAUTT against Wdr19	inactive: -0.0749
GGCUUAUUAGACGGAUGAATT against Rpl7	inactive: -3.41
GCCAGCUACCGAGUCUAUUTT against Tkt	inactive: -0.959
GCUCUACAAGAAUGCUCGGTT against Vps28	inactive: 0.105
GAAAUGGGCAGAGAGAUCGTT against Speer3	inactive: 0.25
GGCUCGUCUCAUGUUUUGGTT against Arfrp1	inactive: 1.1
GGAAGAAGGAAGGUUCAGATT against Strm	inactive: 0.773
GCUACAUGGAUUGGAUUAATT against C1rl	inactive: 0.594
GGGUGGAGACCAAACAAUATT against Npy1r	inactive: 0.422
GGAAGGAACCGUUCUAUAATT against Serpinc1	inactive: 0.92
GGAUACAUCUGAUUUAAUGTT against 4921521J11Rik	inactive: 0.571
GGCCCAUCCCACAAUGAUATT against Gm574	inactive: 0.242
GGAAAUGUUCUUCAUGUCATT against 1110038F14Rik	inactive: -0.409
GGUUAUUAAAGCCUAUGGCTT against Grcc10	inactive: 0.347
GCUAUCGAAGGAAUAAUACTT against Zfp364	inactive: -1.27
GGGAGUUAAGAGCAUUCUCTT against Prlpm	inactive: -0.509
GGAUUUCCUCAUGUGAUCUTT against Smad4	inactive: -0.125
GGAAGUUUGUAGAGUAUGUTT against Xylt1	inactive: -1.06
GGUAGGAAUUUGGAAAACUTT against H2-T24	inactive: 0.915

In a second layout: results already given.
GCUAUCGAAGGAAUAAUACTT against Zfp364
  z-score: inactive: -1.27
GGGAGUUAAGAGCAUUCUCTT against Prlpm
  z-score: inactive: -0.509
GGAUUUCCUCAUGUGAUCUTT against Smad4
  z-score: inactive: -0.125
GGAAGUUUGUAGAGUAUGUTT against Xylt1
  z-score: inactive: -1.06

Remaining list, next part:

Sequence	z-score
GCAGAUUUUCUCCUGCAAGTT against Insm2	inactive: -1.38
GGAAGACAUAAAGCUCUGUTT against Olfr1242	inactive: 0.25
GGUUGCUGUUUAGUUUUCATT against 1810030O07Rik	inactive: 0.00878
CGGAGUUGAAGUUCAUUUATT against 2700097O09Rik	inactive: 0.293
GCAAGAAUGCAAUUUCUUATT against Olfr904	inactive: 0.266
GGAAUAUGGACCAAGAGAGTT against Plcb2	inactive: 0.145
GUCUUUAGAGUCAUCCUCUTT against Olfr493	inactive: 0.962
GGCAGAACGAACAGAGUUUTT against Nipsnap3a	inactive: 1.56
GGCAACUUAAGUUUUACAGTT against 9030409E16Rik	inactive: 0.113
CCGAAAUUCUGACUGAGAATT against 2410018G23Rik	inactive: -1.28
GGCUUGAGGCCUAUUUCAGTT against Sod3	inactive: -2.13
GGUGAAUACUUCAGAUACATT against Sult2b1	inactive: -0.037
UGUACUGAUACAUACUUCCTT against Olfr1249	inactive: 0.47
CCACUCCCAUAAGGGCUAUTT against Smo	inactive: -0.035
GCCGUCAUCAUGGAAGGUUTT against Bace1	inactive: -0.557
CGUGGAUAGGUUUUUGUGGTT against 2510009E07Rik	inactive: 1.23
GCAAUACUCUGGUACUAGATT against 4932415D10Rik	inactive: -0.352
GGAUGAGCUGAAUUUCCUATT against Ocil	inactive: -0.662
GGCAGUAGCCAGAAGGCAUTT against 0610009J22Rik	inactive: -0.25
CCAUAUGAUAUAGCAUGAGTT against Agtr2	inactive: 1.2
GGGAAACAUCUUCCUAUCCTT against Serpina12	inactive: 1.16
GCUGCUAAGUCGCACAUCUTT against Ppfibp2	inactive: -0.516

Sequence	z-score
CCGUGGGACCAGAGUUAAATT against Gm253	inactive: 1.99
GGCACCUGGAUUUUCUAUGTT against Crygs	inactive: 1.79
GGAAGAAGAUGACAAUGAATT against Pak3	inactive: -0.137
CCAGAAGUCUCAAAUUCUGTT against Ccl8	inactive: -0.588
GGAUGUGCAUAGUUUAAAATT against Apg12l	inactive: 0.749
GGUGAUAGAAGUUUACAUGTT against Tnfsf4	inactive: 1.07
GCCAUCGAGUGUGACGAGATT against Nagpa	inactive: 0.148
GGUCAAAGCCUUUCAUUAUTT against 6330406L22Rik	inactive: 1.47
GGGCAAUAAUGCAAAGUAUTT against 4921522P10Rik	inactive: -2.23
GGUCAUUUCACUAGUUUUCTT against 9930014A18Rik	inactive: 1.26
CCUGUUGAGUAAGCAACAATT against 4932416K20Rik	inactive: -0.323
GGCUUCUGUUUUUAUUUGUTT against B230208J24Rik	inactive: 0.992
CGAUGAUCCUUAAAGGAUUTT against Hes5	inactive: 0.245
UACAUUACUUCAACUGGAATT against Gm1961	inactive: -0.634
CGAUGGUGUUUUUUGGCUATT against 9430071P14Rik	inactive: 0.223
CCCAUGACUAUCCAAACAATT against Kcnmb2	inactive: 0.375
GGAUUAUGCAAGUUACAUUTT against Nsf	inactive: -0.0349
GGAGUCACUCUGCUCUUUUTT against Kcnn1	inactive: 2.52
GGCCUCGAACAGUUUAUUATT against Snx12	inactive: -0.582
GGAGGCAGACUUCAGGGAUTT against Lepre1	inactive: 0.175
GGGACUUAAGUGAAGUUCATT against 5730405M13Rik	inactive: -1.22
CCCUACGUGAGACAUUUGATT against 4930564N15Rik	inactive: -0.215
